Data on 35 targets can be found in the supplement of paper PMC10849652.

Chains of the proteins cited; added tags and fusions are not shown. Lines headed by an entry give the natural chain unless they say otherwise; changes in a name come on top.
UniProt Q8TCU4: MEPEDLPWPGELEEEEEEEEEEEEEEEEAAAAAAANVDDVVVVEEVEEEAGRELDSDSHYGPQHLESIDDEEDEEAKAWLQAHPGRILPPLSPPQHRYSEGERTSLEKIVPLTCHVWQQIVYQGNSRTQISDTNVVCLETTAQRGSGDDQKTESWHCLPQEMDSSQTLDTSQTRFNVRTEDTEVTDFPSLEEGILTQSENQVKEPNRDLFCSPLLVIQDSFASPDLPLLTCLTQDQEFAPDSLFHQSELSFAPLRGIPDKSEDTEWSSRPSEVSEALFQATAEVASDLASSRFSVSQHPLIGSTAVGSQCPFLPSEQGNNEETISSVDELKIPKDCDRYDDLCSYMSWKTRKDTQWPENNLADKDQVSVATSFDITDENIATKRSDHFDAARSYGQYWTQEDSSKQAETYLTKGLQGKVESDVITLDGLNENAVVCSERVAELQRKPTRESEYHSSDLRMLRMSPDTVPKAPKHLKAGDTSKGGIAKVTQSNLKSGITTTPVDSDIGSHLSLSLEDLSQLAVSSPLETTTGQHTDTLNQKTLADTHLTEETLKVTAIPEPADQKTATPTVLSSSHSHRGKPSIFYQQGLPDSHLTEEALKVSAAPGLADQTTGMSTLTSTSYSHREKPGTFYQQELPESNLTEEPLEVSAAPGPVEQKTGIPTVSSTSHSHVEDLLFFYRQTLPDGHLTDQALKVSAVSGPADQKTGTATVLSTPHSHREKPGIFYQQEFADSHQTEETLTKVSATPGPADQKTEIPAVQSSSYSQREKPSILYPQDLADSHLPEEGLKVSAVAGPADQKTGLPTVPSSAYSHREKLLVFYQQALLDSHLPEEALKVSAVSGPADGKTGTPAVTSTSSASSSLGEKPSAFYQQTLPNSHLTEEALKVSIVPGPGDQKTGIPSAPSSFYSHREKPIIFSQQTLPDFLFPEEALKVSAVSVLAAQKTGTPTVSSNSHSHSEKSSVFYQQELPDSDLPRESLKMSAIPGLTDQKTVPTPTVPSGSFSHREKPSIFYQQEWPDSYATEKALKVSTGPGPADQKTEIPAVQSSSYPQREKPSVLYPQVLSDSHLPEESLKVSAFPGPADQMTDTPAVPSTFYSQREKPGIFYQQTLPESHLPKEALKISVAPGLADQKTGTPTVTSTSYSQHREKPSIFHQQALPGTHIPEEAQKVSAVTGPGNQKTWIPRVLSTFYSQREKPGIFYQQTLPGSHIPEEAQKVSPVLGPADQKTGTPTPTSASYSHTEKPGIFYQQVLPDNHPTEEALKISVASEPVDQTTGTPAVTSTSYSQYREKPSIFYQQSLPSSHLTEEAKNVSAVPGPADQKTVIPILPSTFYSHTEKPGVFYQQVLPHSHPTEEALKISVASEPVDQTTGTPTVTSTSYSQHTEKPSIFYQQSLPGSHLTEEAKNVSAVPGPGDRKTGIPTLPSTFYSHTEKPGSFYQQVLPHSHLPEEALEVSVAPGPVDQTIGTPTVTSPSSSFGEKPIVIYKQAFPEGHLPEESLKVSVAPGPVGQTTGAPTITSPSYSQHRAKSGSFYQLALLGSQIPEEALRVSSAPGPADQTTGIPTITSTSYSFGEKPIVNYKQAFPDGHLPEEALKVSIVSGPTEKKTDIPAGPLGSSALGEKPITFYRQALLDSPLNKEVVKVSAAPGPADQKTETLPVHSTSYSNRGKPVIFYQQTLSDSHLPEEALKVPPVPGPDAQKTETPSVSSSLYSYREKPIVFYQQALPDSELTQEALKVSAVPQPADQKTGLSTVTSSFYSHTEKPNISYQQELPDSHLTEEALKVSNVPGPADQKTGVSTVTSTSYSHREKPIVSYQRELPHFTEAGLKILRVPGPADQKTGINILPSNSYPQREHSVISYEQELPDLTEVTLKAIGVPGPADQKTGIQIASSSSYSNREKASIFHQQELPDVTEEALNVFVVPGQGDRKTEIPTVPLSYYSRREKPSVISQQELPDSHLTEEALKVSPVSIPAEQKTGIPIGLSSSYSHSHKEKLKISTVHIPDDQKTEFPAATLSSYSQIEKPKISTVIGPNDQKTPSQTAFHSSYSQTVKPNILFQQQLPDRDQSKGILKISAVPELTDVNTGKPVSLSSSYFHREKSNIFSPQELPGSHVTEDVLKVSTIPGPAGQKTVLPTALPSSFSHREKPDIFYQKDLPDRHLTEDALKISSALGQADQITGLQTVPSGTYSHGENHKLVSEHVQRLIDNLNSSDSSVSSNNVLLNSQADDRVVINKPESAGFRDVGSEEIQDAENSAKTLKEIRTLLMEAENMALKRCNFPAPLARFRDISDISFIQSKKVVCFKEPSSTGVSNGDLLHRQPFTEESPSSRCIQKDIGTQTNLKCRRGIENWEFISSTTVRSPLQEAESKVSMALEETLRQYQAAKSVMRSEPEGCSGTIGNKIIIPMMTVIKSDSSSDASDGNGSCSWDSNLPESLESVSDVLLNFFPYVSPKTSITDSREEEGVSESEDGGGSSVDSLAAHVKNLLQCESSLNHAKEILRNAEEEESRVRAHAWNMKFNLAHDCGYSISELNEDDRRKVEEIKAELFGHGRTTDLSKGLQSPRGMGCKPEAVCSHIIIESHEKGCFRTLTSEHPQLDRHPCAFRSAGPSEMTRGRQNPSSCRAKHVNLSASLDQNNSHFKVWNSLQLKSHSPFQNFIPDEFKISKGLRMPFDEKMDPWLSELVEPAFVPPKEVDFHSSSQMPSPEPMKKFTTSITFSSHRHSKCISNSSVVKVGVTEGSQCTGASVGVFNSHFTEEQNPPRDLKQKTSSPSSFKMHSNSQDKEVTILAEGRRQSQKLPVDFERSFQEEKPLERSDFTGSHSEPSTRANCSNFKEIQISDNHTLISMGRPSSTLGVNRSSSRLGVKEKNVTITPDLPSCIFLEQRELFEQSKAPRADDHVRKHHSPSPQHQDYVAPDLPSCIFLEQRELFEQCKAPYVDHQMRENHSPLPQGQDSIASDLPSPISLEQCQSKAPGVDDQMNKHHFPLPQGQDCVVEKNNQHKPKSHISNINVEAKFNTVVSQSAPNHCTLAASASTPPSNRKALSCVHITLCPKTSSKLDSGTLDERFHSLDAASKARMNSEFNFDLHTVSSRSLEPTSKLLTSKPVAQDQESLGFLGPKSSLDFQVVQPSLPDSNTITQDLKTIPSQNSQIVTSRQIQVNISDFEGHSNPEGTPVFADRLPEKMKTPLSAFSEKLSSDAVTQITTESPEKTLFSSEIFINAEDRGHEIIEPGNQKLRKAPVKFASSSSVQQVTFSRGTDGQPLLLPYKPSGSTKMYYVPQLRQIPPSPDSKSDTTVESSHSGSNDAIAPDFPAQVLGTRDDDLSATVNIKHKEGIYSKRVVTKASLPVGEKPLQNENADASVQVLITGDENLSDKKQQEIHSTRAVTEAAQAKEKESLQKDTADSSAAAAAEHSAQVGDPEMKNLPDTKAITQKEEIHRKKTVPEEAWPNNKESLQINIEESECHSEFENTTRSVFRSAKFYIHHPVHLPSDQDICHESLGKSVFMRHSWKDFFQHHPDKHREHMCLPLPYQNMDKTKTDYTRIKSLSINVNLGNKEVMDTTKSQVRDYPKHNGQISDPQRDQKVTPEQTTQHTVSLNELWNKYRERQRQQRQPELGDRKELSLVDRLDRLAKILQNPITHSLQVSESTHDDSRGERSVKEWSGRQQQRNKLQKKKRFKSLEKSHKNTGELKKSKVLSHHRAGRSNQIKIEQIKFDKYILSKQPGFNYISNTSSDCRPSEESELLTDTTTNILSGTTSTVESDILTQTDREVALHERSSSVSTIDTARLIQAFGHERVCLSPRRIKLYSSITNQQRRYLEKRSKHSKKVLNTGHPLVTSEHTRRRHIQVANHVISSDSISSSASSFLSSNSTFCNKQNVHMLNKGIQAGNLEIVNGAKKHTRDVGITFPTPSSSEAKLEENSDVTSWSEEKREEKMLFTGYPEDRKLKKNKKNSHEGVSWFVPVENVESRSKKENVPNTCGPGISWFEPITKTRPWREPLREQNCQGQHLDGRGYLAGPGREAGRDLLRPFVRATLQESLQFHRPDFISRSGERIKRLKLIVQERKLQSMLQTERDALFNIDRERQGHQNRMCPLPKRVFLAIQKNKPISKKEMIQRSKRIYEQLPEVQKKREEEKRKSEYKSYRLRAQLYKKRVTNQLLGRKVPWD
UniProt Q92688: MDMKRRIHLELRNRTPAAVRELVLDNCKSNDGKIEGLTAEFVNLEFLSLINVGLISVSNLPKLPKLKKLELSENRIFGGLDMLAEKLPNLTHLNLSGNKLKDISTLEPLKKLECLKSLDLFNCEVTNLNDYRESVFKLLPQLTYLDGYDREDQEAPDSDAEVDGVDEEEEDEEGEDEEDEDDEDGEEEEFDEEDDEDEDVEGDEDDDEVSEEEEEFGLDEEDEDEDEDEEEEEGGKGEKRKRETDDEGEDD
UniProt Q13367: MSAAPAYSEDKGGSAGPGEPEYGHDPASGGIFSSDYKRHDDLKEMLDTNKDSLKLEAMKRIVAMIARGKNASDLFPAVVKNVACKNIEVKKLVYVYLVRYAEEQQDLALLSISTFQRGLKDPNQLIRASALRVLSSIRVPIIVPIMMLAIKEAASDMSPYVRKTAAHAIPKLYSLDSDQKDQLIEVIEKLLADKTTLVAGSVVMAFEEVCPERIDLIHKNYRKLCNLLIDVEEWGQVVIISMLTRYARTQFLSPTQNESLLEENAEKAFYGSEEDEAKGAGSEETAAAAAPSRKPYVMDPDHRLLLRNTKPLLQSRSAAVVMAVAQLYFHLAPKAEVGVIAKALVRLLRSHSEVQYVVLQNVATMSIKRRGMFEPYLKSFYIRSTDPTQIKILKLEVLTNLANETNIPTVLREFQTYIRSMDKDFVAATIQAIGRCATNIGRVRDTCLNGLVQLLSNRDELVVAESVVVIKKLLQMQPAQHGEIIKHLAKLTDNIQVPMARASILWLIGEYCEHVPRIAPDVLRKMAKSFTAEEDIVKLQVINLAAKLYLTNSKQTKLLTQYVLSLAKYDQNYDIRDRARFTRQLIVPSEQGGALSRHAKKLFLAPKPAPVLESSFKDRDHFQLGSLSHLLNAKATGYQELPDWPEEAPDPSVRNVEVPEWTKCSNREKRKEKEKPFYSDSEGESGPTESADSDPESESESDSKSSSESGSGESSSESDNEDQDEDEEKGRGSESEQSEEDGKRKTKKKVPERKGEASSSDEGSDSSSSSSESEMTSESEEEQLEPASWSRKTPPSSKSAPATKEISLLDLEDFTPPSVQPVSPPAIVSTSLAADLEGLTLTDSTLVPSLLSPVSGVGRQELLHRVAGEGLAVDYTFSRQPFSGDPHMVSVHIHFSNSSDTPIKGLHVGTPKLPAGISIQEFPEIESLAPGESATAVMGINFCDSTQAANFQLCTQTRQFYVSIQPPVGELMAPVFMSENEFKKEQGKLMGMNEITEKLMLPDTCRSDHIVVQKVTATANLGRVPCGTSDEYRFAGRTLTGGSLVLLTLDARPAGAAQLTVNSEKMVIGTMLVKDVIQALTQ
UniProt Q96NW4, whole entry, looked up: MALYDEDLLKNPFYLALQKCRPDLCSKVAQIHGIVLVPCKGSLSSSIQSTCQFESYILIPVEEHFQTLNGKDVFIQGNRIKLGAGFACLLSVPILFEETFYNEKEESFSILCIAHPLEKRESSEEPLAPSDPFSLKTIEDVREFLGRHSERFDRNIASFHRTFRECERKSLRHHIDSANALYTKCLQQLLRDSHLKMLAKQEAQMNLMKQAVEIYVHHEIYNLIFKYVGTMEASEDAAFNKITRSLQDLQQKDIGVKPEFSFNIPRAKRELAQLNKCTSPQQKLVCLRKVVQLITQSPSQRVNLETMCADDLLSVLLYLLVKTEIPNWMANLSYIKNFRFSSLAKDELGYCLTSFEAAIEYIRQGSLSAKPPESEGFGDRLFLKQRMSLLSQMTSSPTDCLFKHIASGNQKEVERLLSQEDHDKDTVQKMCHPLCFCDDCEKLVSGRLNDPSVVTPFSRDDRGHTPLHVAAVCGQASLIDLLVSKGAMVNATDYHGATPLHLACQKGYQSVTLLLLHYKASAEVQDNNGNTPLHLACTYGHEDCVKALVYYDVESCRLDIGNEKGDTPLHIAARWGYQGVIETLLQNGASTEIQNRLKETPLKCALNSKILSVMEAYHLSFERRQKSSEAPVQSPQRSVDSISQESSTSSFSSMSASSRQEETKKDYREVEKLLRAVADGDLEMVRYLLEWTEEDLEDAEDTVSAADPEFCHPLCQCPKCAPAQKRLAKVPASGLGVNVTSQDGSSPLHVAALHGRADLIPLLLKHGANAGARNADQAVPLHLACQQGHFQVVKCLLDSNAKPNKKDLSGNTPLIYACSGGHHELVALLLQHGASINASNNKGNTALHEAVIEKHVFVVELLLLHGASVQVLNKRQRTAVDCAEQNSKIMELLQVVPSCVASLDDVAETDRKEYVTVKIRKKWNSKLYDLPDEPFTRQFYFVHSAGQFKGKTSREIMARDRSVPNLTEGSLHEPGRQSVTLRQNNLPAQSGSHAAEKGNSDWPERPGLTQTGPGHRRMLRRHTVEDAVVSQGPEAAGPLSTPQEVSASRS

Some of the results follow.

Compound in the first assay: CN1CCN(CCOc2cc(OC3CCOCC3)c3c(Nc4c(Cl)ccc5c4OCO5)ncnc3c2)CC1 [saracatinib]
Briefly: log2 fold change, soluble protein after heating vs DMSO (PISA); higher = thermal stabilisation; K562 lysate, 10 uM; active = over 0.2 and 3.5 SD of the protein, either way, in both replicates (recomputed). A digest of the protocol:
(§1)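 K562 pellets were dounce-homogenised in PBS pH 7.4 with 1 mM MgCl2, and the crude extract at 1 mg/mL protein was treated with 10 μM compound for 30 min. Aliquots were heated for 3 min across 48°C-58°C, pooled, and brought to 0.5% NP-40 at 4°C; soluble protein was the supernatant after 21,000xg for 90 min. Soluble protein was quantified by TMTpro 16plex LC-MS/MS with channel sums equalised, and reported as log2 fold change in thermal stability against DMSO controls, with values from duplicates.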
On to ANKRD54 (UniProt Q6NXT1), for which the log2 fold change is inactive: -0.004.
Regarding ALDH6A1 (UniProt Q02252), the log2 fold change is active: -0.324.
Same read-out and setting: in the case of ALKBH3 (UniProt Q96Q83) it was inactive: 0.004.
The same measure, in the same setting: next, AMD1 (UniProt P17707): inactive: 0.013.
On the same count and under the same terms, in the case of ANPEP (UniProt P15144) it was inactive: 0.042; in that of ANXA11 (UniProt P50995), inactive: -0.009.
Take ALDH1A1 (UniProt P00352): the log2 fold change was inactive: 0.272.
Same read-out and setting: next, ALDH1B1 (UniProt P30837): inactive: 0.011.
On the same count and under the same terms, next, ANK1 isoform 14 (UniProt P16157): inactive: 0.002.
On the same count and under the same terms, in the case of AP3S1 (UniProt Q92572) it was inactive: -0.01.
ANKRD28 (UniProt O15084): the log2 fold change is inactive: 0.028.
As to ALS2 (UniProt Q96Q42), the log2 fold change was inactive: 0.001.
With ANTXR2 isoform 4 (UniProt P58335), the log2 fold change was inactive: -0.026.
ANAPC4 isoform 3 (UniProt Q9UJX5): the log2 fold change is inactive: 0.006.
Same read-out and setting: next, ALMS1 (UniProt Q8TCU4): inactive: 0.003; AKT1S1 isoform 3 (UniProt Q96B36): inactive: 0.
With ALDH18A1 (UniProt P54886), the log2 fold change is inactive: 0.003.
The same measure, in the same setting: in the case of AP2S1 (UniProt P53680) it was inactive: -0.025; in that of AP3D1 isoform 5 (UniProt O14617), inactive: 0.001.
On to AP1B1 (UniProt Q10567), for which the log2 fold change is inactive: -0.015.
Same read-out and setting: in the case of ALG2 (UniProt Q9H553) it was inactive: 0.042.
On the same count and under the same terms, next, ALDH2 (UniProt P05091): inactive: 0.012.
Regarding ANP32B (UniProt Q92688), the log2 fold change was inactive: -0.009.
As to AP1G2 (UniProt O75843), the log2 fold change was inactive: -0.032.
On the same count and under the same terms, next, ANGEL2 (UniProt Q5VTE6): inactive: 0.001.
On the same count and under the same terms, next, ANKRD13A (UniProt Q8IZ07): inactive: 0.034.
The same measure, in the same setting: in the case of ALDH1L2 (UniProt Q3SY69) it was inactive: -0.002; in that of ALAD (UniProt P13716), inactive: 0.024.
Consider AP3B2 isoform 4 (UniProt Q13367), for which the log2 fold change is inactive: 0.004.
On to ANAPC2 (UniProt Q9UJX6), for which the log2 fold change was inactive: 0.017.
On the same count and under the same terms, next, ALDH1A2 (UniProt O94788): inactive: 0.022.
The same measure, in the same setting: next, ANXA3 (UniProt P12429): inactive: -0.006; ANKRD27 (UniProt Q96NW4): inactive: 0.054; ANAPC10 (UniProt Q9UM13): inactive: 0.046.
On the same count and under the same terms, next, ALG1 (UniProt Q9BT22): inactive: 0.02.

Compound in another assay: CN1CCN(c2nc(C3=C(c4c[nH]c5ccccc45)C(=O)NC3=O)c3ccccc3n2)CC1 [sotrastaurin]
The description is as above. In outline: as §1
Regarding ANKRD54 (UniProt Q6NXT1), the log2 fold change is inactive: 0.001.
Still for that read-out and setting: next, ALDH6A1 (UniProt Q02252): inactive: -0.082.
Turning to ALKBH3 (UniProt Q96Q83), the log2 fold change is inactive: -0.024.
The same measure, in the same setting: in the case of AMD1 (UniProt P17707) it was inactive: -0.002.
Regarding ANPEP (UniProt P15144), the log2 fold change was inactive: -0.029.
Same read-out and setting: in the case of ANXA11 (UniProt P50995) it was inactive: -0.017.
In the case of ALDH1A1 (UniProt P00352), the log2 fold change was inactive: 0.001.
Same read-out and setting: next, ALDH1B1 (UniProt P30837): inactive: 0.022.
On the same count and under the same terms, in the case of ANK1 isoform 14 (UniProt P16157) it was inactive: 0.013; in that of AP3S1 (UniProt Q92572), inactive: 0.042.
Regarding ANKRD28 (UniProt O15084), the log2 fold change is inactive: -0.024.
On the same count and under the same terms, next, ALS2 (UniProt Q96Q42): inactive: 0.008.
Same read-out and setting: in the case of ANTXR2 isoform 4 (UniProt P58335) it was inactive: 0; in that of ANAPC4 isoform 3 (UniProt Q9UJX5), inactive: 0; in that of ALMS1 (UniProt Q8TCU4), inactive: 0.
Consider AKT1S1 isoform 3 (UniProt Q96B36), for which the log2 fold change was inactive: -0.012.
Turning to ALDH18A1 (UniProt P54886), the log2 fold change is inactive: 0.014.
Regarding AP2S1 (UniProt P53680), the log2 fold change was inactive: 0.042.
Consider AP3D1 isoform 5 (UniProt O14617), for which the log2 fold change is inactive: 0.013.
With AP1B1 (UniProt Q10567), the log2 fold change is inactive: 0.003.
Same read-out and setting: next, ALG2 (UniProt Q9H553): inactive: -0.02; ALDH2 (UniProt P05091): inactive: 0; ANP32B (UniProt Q92688): inactive: -0.004.
Still for that read-out and setting: next, AP1G2 (UniProt O75843): inactive: 0.022.
On the same count and under the same terms, in the case of ANGEL2 (UniProt Q5VTE6) it was inactive: 0.064; in that of ANKRD13A (UniProt Q8IZ07), inactive: 0.034; in that of ALDH1L2 (UniProt Q3SY69), inactive: 0.013.
For ALAD (UniProt P13716), the log2 fold change was inactive: 0.025.
Consider AP3B2 isoform 4 (UniProt Q13367), for which the log2 fold change is inactive: -0.011.
Take ANAPC2 (UniProt Q9UJX6): the log2 fold change is inactive: 0.002.
On the same count and under the same terms, in the case of ALDH1A2 (UniProt O94788) it was inactive: 0.
On to ANXA3 (UniProt P12429), for which the log2 fold change is inactive: 0.046.
Take ANKRD27 (UniProt Q96NW4): the log2 fold change was inactive: -0.002.
On the same count and under the same terms, next, ANAPC10 (UniProt Q9UM13): inactive: 0.009.
Same read-out and setting: next, ALG1 (UniProt Q9BT22): inactive: -0.014.
